Results are given in words; binding and its absence hold for the method and conditions named. Binding can be weak; no strength is given.
Target: TR7 polypeptide (form used for the phage display selection not stated) (human)
Test: phage display selection of scFvs (no details given)

Binder	binding
CM059H03 scFv (scFv) scFv: EVQLVQSGAEVKKPGASVKVSCRASGYTFTSYGITWVRQAPGQGLEWMGWISAYNGKTNYVQELQGRVTMTTDTSTSTVYMELTSLRSDDTAVYYCARRGNNYRFGYFDFWGQGTLVTVSSGGGGSGGGGSGGGGSALETTLTQSPGTLSLSPGERATLSCRASQSISSSNLAWYQQKPGRAPRLLIYGASSRAIGIPDRFSGSGSGTDFTLTISRLEAEDFAVYYCQQYGSSPITFGQGTRLEIKR	binds
CM087C06 scFv (scFv) scFv: QMQLVQSGGGLVKPGGSLRLSCAASGFTFSDYYMSWIRQAPGKGLEWVSAISGSGGSTYYADSVKGRFTISRDNSKNTLYLQMNSLRAEDTAVYYCARGGSTFDIWGRGTMVTVSSGGGGSGGGGSGGGGSAQPVLTQPPSASGTPGQRVTISCSGSNSNIGSRPVNWYQQLPGTAPKLLIQGNNQRPSGVPDRFSGSKSGTSASLAISGLQSEDEADYYCAAWDDSLTGYVFGPGTKLTVLG	binds
CM055A01 scFv (scFv) scFv: QMQLVQSGGAVVQPGRSLRLSCAASGFTFSSYGMHWVRQAPGKGLEWVAVISYDGSIKYYADSVKGRFTISRDNSKNTLYLQMNSLRAEDTAVYYCARERLRGLDPWGQGTMVTVSSGGGGSGGGGSGGGGSSELTQDPAVSVALGQTVRITCQGDSLRSYYASWYQQKPGQAPVLVIYGKNNRPSGIPDRFSGSSSGNTASLTITGAQAEDEADYYCNSRDSSGNHVVFGGGTKLTVLG	binds
CM013F04 scFv (scFv) scFv: EVQLVESGGGLVQPGGSLRLSCAASGFTFSSYWMSWVRQAPGKGLEWVANIKQDGSEKYYVDSVKGRFTISRDNAKNSLYLQMNSLRAEDTAVYYCARDFSGYGDYLDYWGKGTLVTVSSGGGGSGGGGSGGGGSAQSALTQPPSASGSPGQSVTISCTGTSSDIGNYNYVSWYQQHPGKAPKLMIYEVNERPSGVPDRFSGSKSGNTASLTVSGLRPEDEADYYCSSYAGNNAVIFGGGTQLTVLG	binds
CM013A11 scFv (scFv) scFv: QVQLVQSGGGVVQPGRSLRLSCAASGFTFSPDAMHWVRQAPGKGLEWMGVISFDGSQTFYADSVKGRFTISRDNSQNTLYLQMNSLRSDDTAVYYCARAPARFFPLHFDIWGRGTMVTVSSGGGGSGGGGSGGGGSALSSELTQDPAVSVALGQTVRITCQGDSLRTHYASWYHQRPGRAPVLVNYPKDSRPSGIPDRFSGSSSGNTASLTIIGAQAADEGDYYCQSRDSSGVLFGGGTKVTVLG	binds

Now from value to binder:

binding	Binder
binds	CM014C10 scFv (scFv) scFv: QVQLVQSGAEVKKPGASVKISCEGSGYTFNSYTLHWLRQAPGQRLEWMGRINAGNGNTKYSQNFQGRLSITRDTSATTAYMELSSLRSEDTGVYYCARVFTYSFGMDVWGRGTLVTVSSGGGGSGGGGSGGGGSAQSVLTQPPSASGTPGQRVTISCSGGGSNIGRNSVSWYQQLPGTAPKLILYSNNQRPSGVPDRFSGSKSGTSASLAISGLRSEDEALYYCAAWDDSLSGGVFGGGTKLTVLG
binds	CM084A02 scFv (scFv) scFv: EVQLVQSGAEVKKPGASVKLSCKASGYTLVNYFMHWVRQAPGQGPEWMGMINPSGGTTKNRQKFQDRVTMTRDTSTRTVYMELSGLTSEDTAVYYCATDFKGTDILFRDWGRGTLVTVSSGGGGSGGGGSGGGGSAQSVLTQPPSASGTPGQRVSISCSGSSSNIGSNTVIWYQQLPGTAPKLLMYSNDRRPSGVPDRFSGSKSGTSASLAISGLQSEDEADYYCATWDDSLNGHYVFGTGTKLTVLG
binds	CM089A03 scFv (scFv) scFv: QVQLQQSGAEVKTPGSSVKVSCKASGGTFRNNAISWVRQAPGQGLEWMGGFIPKFGTTNHAQKFQGRVTMTADDSTNTVYMELSSLRSEDTAVYYCARGGAYCGGGRCYLYGMDVWGQGTLVTVSSGGGGSGGGGSGGGGSAQAVVIQEPSLTVSPGGTVTLTCGSSTGAVTSGHYPYWFQQKPGQAPRTLIYDTSNKRSWTPARFSGSLLGGKAALTLSGAQPEDEAEYYCLVSYSGSLVVFGGGTKLTVLG
binds	CM033D06 scFv (scFv) scFv: QVQLQQSGAEVKKPGASVRVSCQASGYSLSEYYIHWVRQAPGQGLEWMGWLNPNSGVTDYAQKFQGRVSMTRDTSISTAYMELSSLTFNDTAVYFCARGNGDYWGKGTLVTVSPGGGGSGGGGSGGGGSSELTQDPAVSVALGQTVRITCQGDSLRSYYTNWFQQKPGQAPLLVVYAKNKRPSGIPDRFSGSSSGNTASLTITGAQAEDEADYYCHSRDSSGWVFGGGTKLTVLG
binds	CM088F10 scFv (scFv) scFv: QVQLVQSGAEVKKPGASVKVSCKASGYTFTTHAMHWVRQAPGQSLEWMGWINTGNGNTKYSQSFQGRVSITRDTSANTAYMELSSLKSEDTAMYYCARASRDSSGYYYVPPGDFFDIWGQGTLVTVSSGGGGSGGGGSGGGGSAQSALTQPASVSGSPGQSITISCTGSRSDIGGYNFVSWYQQHPGKAPKLLIYDVYNRPSGISDHFSGSKSDNTASLTISGLQSEDDADYYCSSYAGYHTWIFGGGTKVTVLG
binds	CM005A08 scFv (scFv) scFv: EVQLVETGGGLVQPGGSLRLSCAASGFTFSSYAMSWVRQAPGKGLEWVSAISGSGGSTYYADSVKGRFTISRDNSKNTLYLQMNSLRAEDTAVYHCARGGYSSSRSAAYDIWGQGTLVTVSSGGGGSGGGGSGGGGSSELTQDPAVSVALGQTVRITCQGDSLRSYYASWYQQKPGQAPVLVIYGKNNRPSGIPDRFSGSSSGNTASLTITGAQAEDEADYYCNSRDSSGNHVVFGGGTKLTVLG
binds	CM085C11 scFv (scFv) scFv: EVQLVETGGGLVQPGGSLRLSCAASGFTFSPYYMSWVRQAPGKGLEWVSAISGSGGSIYYADSVKGRFTISRDNSKNTLYLQMNSLRAEDTALYYCARGASGPDYWGRGTMVTVSSGGGGSGGGGSGGGGSAQSVLTQPPSVSAAPGQKVTISCSGSTSNIGNNYVSWYQQVPGTAPKLLIYDNNKRPSGIPDRFSGSKSGTSATLGITGLQTGDEADYYCGTWDSSLSALVFGGGTKVTVLG
